Reference: patent publication US20020156009A1 (published 2002)
Results are given in words; binding and its absence hold for the method and conditions named. Some results given as binding are weak or reduced against the parent protein; the word gives no strength. Sequences can lack the tags named with a protein.

Amino acid sequences for entries named in this document (tags omitted). Residues count along the entry.
UniProt P14778, residues 18-569: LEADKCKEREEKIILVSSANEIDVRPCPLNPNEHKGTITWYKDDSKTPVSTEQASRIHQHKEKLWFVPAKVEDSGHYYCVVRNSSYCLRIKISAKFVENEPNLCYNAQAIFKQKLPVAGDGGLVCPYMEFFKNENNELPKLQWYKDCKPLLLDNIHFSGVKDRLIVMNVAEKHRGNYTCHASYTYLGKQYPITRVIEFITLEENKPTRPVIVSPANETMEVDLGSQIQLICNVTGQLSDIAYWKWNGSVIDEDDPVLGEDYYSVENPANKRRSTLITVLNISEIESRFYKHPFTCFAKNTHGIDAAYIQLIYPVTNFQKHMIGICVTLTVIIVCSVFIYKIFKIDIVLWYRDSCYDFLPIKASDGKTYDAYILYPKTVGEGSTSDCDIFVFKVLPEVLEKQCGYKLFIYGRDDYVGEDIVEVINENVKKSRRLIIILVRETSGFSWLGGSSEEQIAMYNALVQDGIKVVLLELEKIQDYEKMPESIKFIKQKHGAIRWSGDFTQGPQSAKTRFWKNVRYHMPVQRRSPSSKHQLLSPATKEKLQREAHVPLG

What was measured:
[1] = target: interleukin-1 (IL-1) receptor on human cells (human) (UniProt P14778); assay: FACS, 5 nM IL-1 Hy2 on 10^6 human fibroblast cells (CCD 1089), BS3 crosslinker, anti-express tag antibody and PE anti-mouse Ig
[2] = target: T1, IL-1 receptor on murine cell lines D10 and RAW 264.7 (murine) (UniProt P13504); assay: FACS on murine cell lines D10 and RAW 264.7
T1 sequence (looked up): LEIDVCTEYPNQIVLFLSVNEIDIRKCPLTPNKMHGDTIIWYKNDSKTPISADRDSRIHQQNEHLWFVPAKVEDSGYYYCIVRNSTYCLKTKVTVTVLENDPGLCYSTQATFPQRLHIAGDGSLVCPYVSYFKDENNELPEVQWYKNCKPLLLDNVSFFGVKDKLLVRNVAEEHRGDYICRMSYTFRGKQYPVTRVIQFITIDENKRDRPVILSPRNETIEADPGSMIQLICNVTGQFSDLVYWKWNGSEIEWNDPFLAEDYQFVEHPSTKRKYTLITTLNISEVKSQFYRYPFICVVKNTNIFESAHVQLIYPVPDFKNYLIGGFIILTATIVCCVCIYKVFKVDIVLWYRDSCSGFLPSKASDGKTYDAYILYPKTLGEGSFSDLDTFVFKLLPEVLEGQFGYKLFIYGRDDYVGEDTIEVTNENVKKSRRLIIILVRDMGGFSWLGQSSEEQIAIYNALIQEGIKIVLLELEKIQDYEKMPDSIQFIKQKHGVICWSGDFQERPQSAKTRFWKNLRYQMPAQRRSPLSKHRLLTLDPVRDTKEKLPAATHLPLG

- binding [1]: binds
- binding [2]: binds
B1: recombinant tagged IL-1 Hy2 (ligand, not shown: small tags and cut ends)
chain: MCSLPMARYYIIKYADQKALYTRDGQLLVGDPVADNCCAEKICTLPNRGLDRTKVPIFLGIQGGSRCLACVETEEGPSLQLEDVNIEELYKGGEEATRFTFFQSSSGSAFRLEAAAWPGWFLCGPAEPQQPVQLTKESEPSARTKFYFEQSW
